Laboratory results as given in PubChem BioAssay AID312 (DTP/NCI, 2004).
The list shows only some results of the screen, not a fair sample: it covers a few groups of compounds. Other doses and runs of a compound may be missing. T/C is the treated group as % of the vehicle group. For survival time, this PubChem deposit counts one and a half times the control or more as active, and values a quarter to a half above the control carry no call in these data; other NCI protocols may use other cut-offs. Schedule codes are those of the source, read here as Q, the interval in days (D) or hours (H), X, the number of doses.

System: BDF1 mice, C1498 leukemia ip, median survival T/C
Experiment: NCI In Vivo Anticancer Drug Screen. Data for tumor model C1498 Myeloid Leukemia (intraperitoneal) in B6D2F1 (BDF1) mice
Settings: T/C endpoint: median survival time, schedule: Q01DX010 (ip), vehicle: saline, higher T/C = longer survival
Description: The antitumor activity of compounds was measured in mice bearing transplantable tumors. Survival or tumor size were measured and the results are expressed as the measurement made in the treated group (T) divided by the measurement made in the vehicle treated control group (C). The tumor model used in this assay is C1498 Myeloid Leukemia (intraperitoneal) in B6D2F1 (BDF1) mice

SMILES | T/C (dose: 10.0 mg/kg/injection) | T/C (dose: 14.0 mg/kg/injection) | T/C (dose: 20.0 mg/kg/injection) | T/C (dose: 30.0 mg/kg/injection) | T/C (dose: 0.25 mg/kg/injection) | T/C (dose: 0.5 mg/kg/injection) | T/C (dose: 1.0 mg/kg/injection) | T/C (dose: 2.0 mg/kg/injection) | T/C (dose: 2.5 mg/kg/injection) | T/C (dose: 5.0 mg/kg/injection)
CC[C@@H](C)[C@@H]1NC(=O)/C(=C(\C)O)C1=O.c1ccc(CNCCNCc2ccccc2)cc1 | 109 % of control | 104 % of control | 100 % of control | 100 % of control | – | – | – | – | – | –
Cc1[nH]c(=O)[nH]c(=O)c1N(CCCl)CCCl | – | – | – | – | 109 % of control | 113 % of control | 131 % of control | 127 % of control | – | –
NC1CCCCC1.O=P(O)(N(CCCl)CCCl)N1CC1 | 122 % of control | – | 163 % of control | – | – | – | – | – | 109 % of control | 109 % of control
